Assay results reported in patent publication US20080145360A1.
No constants are given. Whether binding was seen depends on the method and setting.

Molecular target: keyhole limpet hemocyanin, protein carrier
Experiment: ELISA with exchanged laydown conjugates (KLH exchanged for BSA)

B1: murine anti-S1P monoclonal antibody (Sphingomab, hybridoma clone 306D326.26, ATCC SD-5362) (antibody, mouse IgG1, V domains shown)
VH: QAHLQQSDAELVKPGASVKISCKVSGFIFIDHTIHWMKQRPEQGLEWIGCISPRHDITKYNEMFRGKATLTADKSSTTAYIQVNSLTFEDSAVYFCARGGFYGSTIWFDFWGQGTTLTVS
VL: ETTVTQSPASLSMAIGEKVTIRCITTTDIDDDMNWFQQKPGEPPNLLISEGNILRPGVPSRFSSSGYGTDFLFTIENMLSEDVADYYCLQSDNLPFTFGSGTKLEIK
  binding: no binding
